Experimental data: PubChem BioAssay AID1259254 (NCATS, 2017)
The deposit covers about 59,000 reagents; shown is an unselected part. About 1,550 of all reagents (2.6%) were called active. 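G2 share is only a proxy for re-replication; each gene was hit by three separate siRNAs, and active genes were retested.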 Entries without a mark were called inactive. Not all columns of the deposit are shown. No sequences are given here. The record does not give: the amount of reagent.

- Assay: 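Genome-wide screen for genes that prevent DNA re-replication in cancer cells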 (primary screen)
- System: human HCT116 colorectal cancer cells
- Knock-down reagent: single siRNA against human genes
- Duration: 3 days
- Read-out: 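Nuclei stained with Hoechst and imaged; cell-cycle phase assigned by DNA content; G2 share scaled per plate, non-targeting siRNA 0%, GMNN siRNA 100%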
- Scale: G2 robust z-score and G2 cells, % of GMNN control: higher = more G2 cells, more excess DNA replication
- Hit rule: 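An siRNA counts as active if its G2 robust z-score lies at least 5 MADs above the screen median; here such calls match roughly 38% of GMNN control or more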

target gene | PubChem SID | G2 robust z-score | G2 cells, % of GMNN control
ARMC10P1 (GeneID 389137) | SID160766107 | -0.992 | -4.01
ARMC10P1 (GeneID 389137) | SID160766108 | 0.106 | 3.71
ARMC10P1 (GeneID 389137) | SID160766109 | -0.803 | -2.68
GRIN2B (GeneID 2904) | SID160774514 | 2.1 | 17.7
GRIN2B (GeneID 2904) | SID160774523 | -0.3 | 0.859
GRIN2B (GeneID 2904) | SID160774534 | -1.09 | -4.67
USP27X (GeneID 389856) | SID160766300 | 0.64 | 7.47
USP27X (GeneID 389856) | SID160766301 | 1.52 | 13.6
USP27X (GeneID 389856) | SID160766302 | -0.627 | -1.44
ZNF474 (GeneID 133923) | SID160757288 | 0.982 | 9.88
ZNF474 (GeneID 133923) | SID160757289 | -0.805 | -2.69
ZNF474 (GeneID 133923) | SID160757290 | -0.862 | -3.09
NDST2 (GeneID 8509) | SID160720198 | 6.87 (active) | 51.3
NDST2 (GeneID 8509) | SID160720200 | 0.309 | 5.14
NDST2 (GeneID 8509) | SID160720201 | -0.453 | -0.221
CARD19 (GeneID 84270) | SID160735085 | 0.216 | 4.48
CARD19 (GeneID 84270) | SID160752011 | -1.01 | -4.16
CARD19 (GeneID 84270) | SID160752012 | -0.791 | -2.6
FGF23 (GeneID 8074) | SID160719600 | 0.152 | 4.03
FGF23 (GeneID 8074) | SID160719602 | 2.15 | 18.1
FGF23 (GeneID 8074) | SID160719603 | -0.853 | -3.03
ANAPC16 (GeneID 119504) | SID160732369 | -0.309 | 0.791
ANAPC16 (GeneID 119504) | SID160755717 | -1.04 | -4.32
ANAPC16 (GeneID 119504) | SID160755718 | -1.18 | -5.35
TSEN2 (GeneID 80746) | SID160750519 | 0.319 | 5.21
TSEN2 (GeneID 80746) | SID160750520 | 0.66 | 7.61
TSEN2 (GeneID 80746) | SID160750521 | -0.453 | -0.222
CC2D2B (GeneID 387707) | SID160765640 | 0.817 | 8.72
CC2D2B (GeneID 387707) | SID160765641 | -0.125 | 2.09
CC2D2B (GeneID 387707) | SID160765642 | -1.01 | -4.13
